According to US6458978B1, “Fluorous phosphines and process for their preparation” (Atofina Vlissingen B.V., priority 1998, dated 2002):
Marks after values point to notes of the source that are not given here.

Assay: Leaching of rhodium and phosphorus into the organic product phase and partitioning of rhodium species (ICP-AAS)
Details: for rhodium concentration in the product phase: by weight, after phase separation; for Leaching P / Leaching Rh: at T = 0° C.
From the text: Rhodium leaching into the organic phase (as determined by ICP-AAS) was low. On average 0.12% of Rh per cycle was lost corresponding to a rhodium concentration of 3 ppm (by weight) in the product phase. Over 9 cycles only 1% of rhodium was lost despite of the phase separation method used. Leaching was higher for less fluorous pre-catalyst H{1,6}: 0.3% (6 ppm) of rhodium was present in the organic phase after phase separation.
The amount of leached rhodium allows to calculate the average partition coefficients (P) of the rhodium species present during phase separation (Table 6). […] Chem. Soc. 1999, 121, 2696-2704.). […] Chem. Int. Ed. Engl. 1997, 36, 1610-1612).
The retention of free uncoordinated fluorous phosphine can be used for recycling the intact catalyst system.
Only catalysts prepared through method 1 were used. Catalytic reactions were carried out under single phase fluorous conditions in c-CF3C6F11 (2 mL) at 80° C. After >90% conversion (monitored by the H2 uptake) the homogeneous reaction mixture was cooled to 0° C. and the upper organic layer was siphoned of. In between cycles the fluorous layer was kept under H2 atmosphere. By warming up to 80° C. and addition of a fresh portion of 1-octene (12.74 mmol) a new cycle was started. The organic phases resulting from the first cycle were analyzed by GC and ICP-AAS.

[1] = cycle 8, high value due to experimental error during phase separation
[2] = cycle 9, fresh c-CF3C6F11 added

Question: For `C[Si](C)(CCC(F)(F)C(F)(F)C(F)(F)C(F)(F)C(F)(F)C(F)(F)F)c1ccc([PH](c2ccc([Si](C)(C)CCC(F)(F)C(F)(F)C(F)(F)C(F)(F)C(F)(F)C(F)(F)F)cc2)(c2ccc([Si](C)(C)CCC(F)(F)C(F)(F)C(F)(F)C(F)(F)C(F)(F)C(F)(F)F)cc2)[Rh]([Cl])([PH](c2ccc([Si](C)(C)CCC(F)(F)C(F)(F)C(F)(F)C(F)(F)C(F)(F)C(F)(F)F)cc2)(c2ccc([Si](C)(C)CCC(F)(F)C(F)(F)C(F)(F)C(F)(F)C(F)(F)C(F)(F)F)cc2)c2ccc([Si](C)(C)CCC(F)(F)C(F)(F)C(F)(F)C(F)(F)C(F)(F)C(F)(F)F)cc2)[PH](c2ccc([Si](C)(C)CCC(F)(F)C(F)(F)C(F)(F)C(F)(F)C(F)(F)C(F)(F)F)cc2)(c2ccc([Si](C)(C)CCC(F)(F)C(F)(F)C(F)(F)C(F)(F)C(F)(F)C(F)(F)F)cc2)c2ccc([Si](C)(C)CCC(F)(F)C(F)(F)C(F)(F)C(F)(F)C(F)(F)C(F)(F)F)cc2)cc1` [H{1,6}, (D{1,6})3RhCl], which “fluorous phosphine in the alkane product phases, share of total phosphorus in precatalyst” value is on record?
Answer: 8%

Question: What about the “fluorous phosphine present in the alkane product phases” value of the same compound?
Answer: 130 ppm

Question: And the “rhodium present in the organic phase after phase separation” value?
Answer: 0.3%

Question: What about the “rhodium concentration in the product phase” value of the same compound?
Answer: 6 ppm

Question: What about the “Leaching P” value (cycle 1, [1-octene]/[Rh] = 559) of the same compound?
Answer: 8.1%

Question: What about the “Leaching Rh” value (cycle 1, [1-octene]/[Rh] = 559) of the same compound?
Answer: 0.27%

Question: For `C[Si](C)(CCC(F)(F)C(F)(F)C(F)(F)C(F)(F)C(F)(F)C(F)(F)C(F)(F)C(F)(F)F)c1ccc(P(c2ccc([Si](C)(C)CCC(F)(F)C(F)(F)C(F)(F)C(F)(F)C(F)(F)C(F)(F)C(F)(F)C(F)(F)F)cc2)c2ccc([Si](C)(C)CCC(F)(F)C(F)(F)C(F)(F)C(F)(F)C(F)(F)C(F)(F)C(F)(F)C(F)(F)F)cc2)cc1.C[Si](C)(CCC(F)(F)C(F)(F)C(F)(F)C(F)(F)C(F)(F)C(F)(F)C(F)(F)C(F)(F)F)c1ccc(P(c2ccc([Si](C)(C)CCC(F)(F)C(F)(F)C(F)(F)C(F)(F)C(F)(F)C(F)(F)C(F)(F)C(F)(F)F)cc2)c2ccc([Si](C)(C)CCC(F)(F)C(F)(F)C(F)(F)C(F)(F)C(F)(F)C(F)(F)C(F)(F)C(F)(F)F)cc2)cc1.C[Si](C)(CCC(F)(F)C(F)(F)C(F)(F)C(F)(F)C(F)(F)C(F)(F)C(F)(F)C(F)(F)F)c1ccc(P(c2ccc([Si](C)(C)CCC(F)(F)C(F)(F)C(F)(F)C(F)(F)C(F)(F)C(F)(F)C(F)(F)C(F)(F)F)cc2)c2ccc([Si](C)(C)CCC(F)(F)C(F)(F)C(F)(F)C(F)(F)C(F)(F)C(F)(F)C(F)(F)C(F)(F)F)cc2)cc1.[Cl][Rh]` [H{1,8}, (D{1,8})3RhCl], which “fluorous phosphine in the alkane product phases, share of total phosphorus in precatalyst” value is on record?
Answer: 3%

Question: And the “fluorous phosphine present in the alkane product phases” value?
Answer: 64 ppm

Question: What about the “rhodium lost over 9 cycles” value of the same compound?
Answer: 1%

Question: And the “rhodium concentration in the product phase” value?
Answer: 3 ppm

Question: And the “Leaching P” value (cycle 1, [1-octene]/[Rh] = 365)?
Answer: 2.34%

Question: And the “Leaching Rh” value (cycle 1, [1-octene]/[Rh] = 365)?
Answer: 0.11%

Question: And the “Leaching P” value (cycle 2)?
Answer: 2.06%

Question: And the “Leaching Rh” value (cycle 2)?
Answer: 0.05%

Question: And the “Leaching P” value (cycle 3)?
Answer: 3.24%

Question: What about the “Leaching Rh” value (cycle 3) of the same compound?
Answer: 0.10%

Question: What about the “Leaching P” value (cycle 4) of the same compound?
Answer: 3.20%

Question: What about the “Leaching Rh” value (cycle 4) of the same compound?
Answer: 0.11%

Question: What about the “Leaching P” value (cycle 5) of the same compound?
Answer: 3.52%

Question: And the “Leaching Rh” value (cycle 5)?
Answer: 0.18%

Question: What about the “Leaching P” value (cycle 6) of the same compound?
Answer: 2.15%

Question: And the “Leaching Rh” value (cycle 6)?
Answer: 0.08%

Question: And the “Leaching P” value (cycle 7)?
Answer: 2.34%

Question: And the “Leaching Rh” value (cycle 7)?
Answer: 0.05%

Question: What about the “Leaching P” value [1] of the same compound?
Answer: 4.70^e %

Question: What about the “Leaching Rh” value [1] of the same compound?
Answer: 0.33^e %

Question: And the “Leaching P” value [2]?
Answer: 3.41%

Question: And the “Leaching Rh” value [2]?
Answer: 0.08%

Question: What about the “Rh lost per cycle, on average” value (leaching into the organic phase, ICP-AAS) of the same compound?
Answer: 0.12%
